{"source": "patent US20220073613A1", "about": "“ACTIVATABLE MASKED ANTI-CTLA4 BINDING PROTEINS” (Xilio Development, Inc., priority 2018, published 2022)", "key": {"MC38 conditioned media": {"tested_on": "MC38 conditioned media", "test": "AMSP-MS kinetic analysis of AK10 peptides, MC38", "format": "biochemical, mouse", "procedure": "(§1) Ten sequences (AK10) shown in Table 19 were analyzed via AMSP-MS. These sequences were slightly modified from the original sequences to generate mass spectrometry-compatible peptides (in some cases adding basic residues to add positive charge) and spacing residues (GG) to produce longer ˜14-mer peptides. The peptides were prepared at a 500 nM final concentration in the AMSP-MS reaction. The AK10 library was also separately analyzed by LC-MS/MS for chemical validation of the peptide species. The AMSP-MS analysis was performed under standard substrate specificity profiling conditions, sampling time points during the reaction incubation at 0, 15, 60, 240 and 1200 min. Peptides were quantified by mass spectrometric label-free quantitation from the MS1 precursor ion peak areas for each peptide species. Enzyme progress curves were modeled in GraphPad Prism software v 8.0 and data were fitted using non-linear least squares fitting to the first order kinetic equation: where Y=percent product formation, Kobs is the observed rate, and t=time. In Michaelis-Menten kinetics, the observed rate Kobs is a function of the enzyme concentration and catalytic efficiency (kcat/KM). In this analysis of an enzyme mixture, Kobs was used to rank product cleavages."}, "H2228 conditioned media": {"tested_on": "H2228 conditioned media", "test": "AMSP-MS kinetic analysis of AK10 peptides, H2228", "format": "biochemical, human"}, "NAT conditioned media": {"tested_on": "NAT conditioned media", "test": "AMSP-MS kinetic analysis of AK10 peptides, NAT", "format": "biochemical, human", "procedure": "as §1"}, "tumor conditioned media": {"tested_on": "tumor conditioned media", "test": "AMSP-MS kinetic analysis of AK10 peptides, patient tumor", "format": "biochemical, human", "procedure": "as §1"}}, "data": [{"sequence": "RGGMPYDLYHPGGK [AK-04]", "values": [{"measurement": "Cleaved by conditioned media samples?", "setting": "MC38 conditioned media", "value": "No"}, {"measurement": "Cleaved by conditioned media samples?", "setting": "H2228 conditioned media", "value": "Yes"}, {"measurement": "Cleaved by conditioned media samples?", "setting": "NAT conditioned media", "value": "Yes"}, {"measurement": "Cleaved by conditioned media samples?", "setting": "tumor conditioned media", "value": "Yes"}]}, {"sequence": "RGGVPLSLYSGGGK [AK-03]", "values": [{"measurement": "Cleaved by conditioned media samples?", "setting": "MC38 conditioned media", "value": "No"}, {"measurement": "Cleaved by conditioned media samples?", "setting": "H2228 conditioned media", "value": "No"}, {"measurement": "Cleaved by conditioned media samples?", "setting": "NAT conditioned media", "value": "No"}, {"measurement": "Cleaved by conditioned media samples?", "setting": "tumor conditioned media", "value": "Yes"}]}, {"sequence": "MPYDLYHPRQARVVG [AK-10]", "values": [{"measurement": "Cleaved by conditioned media samples?", "setting": "MC38 conditioned media", "value": "Yes"}, {"measurement": "Cleaved by conditioned media samples?", "setting": "H2228 conditioned media", "value": "Yes"}, {"measurement": "Cleaved by conditioned media samples?", "setting": "NAT conditioned media", "value": "Yes"}, {"measurement": "Cleaved by conditioned media samples?", "setting": "tumor conditioned media", "value": "Yes"}]}, {"sequence": "GSGRAAAVKSPGSK [AK-07]", "values": [{"measurement": "Cleaved by conditioned media samples?", "setting": "MC38 conditioned media", "value": "No"}, {"measurement": "Cleaved by conditioned media samples?", "setting": "H2228 conditioned media", "value": "No"}, {"measurement": "Cleaved by conditioned media samples?", "setting": "NAT conditioned media", "value": "No"}, {"measurement": "Cleaved by conditioned media samples?", "setting": "tumor conditioned media", "value": "No"}]}, {"sequence": "RGSGHEQLTVGGSK [AK-06]", "values": [{"measurement": "Cleaved by conditioned media samples?", "setting": "MC38 conditioned media", "value": "No"}, {"measurement": "Cleaved by conditioned media samples?", "setting": "H2228 conditioned media", "value": "No"}, {"measurement": "Cleaved by conditioned media samples?", "setting": "NAT conditioned media", "value": "No"}, {"measurement": "Cleaved by conditioned media samples?", "setting": "tumor conditioned media", "value": "No"}]}, {"sequence": "LSGRSNAMPYDLYHP [AK-09]", "values": [{"measurement": "Cleaved by conditioned media samples?", "setting": "MC38 conditioned media", "value": "Yes"}, {"measurement": "Cleaved by conditioned media samples?", "setting": "H2228 conditioned media", "value": "Yes"}, {"measurement": "Cleaved by conditioned media samples?", "setting": "NAT conditioned media", "value": "Yes"}, {"measurement": "Cleaved by conditioned media samples?", "setting": "tumor conditioned media", "value": "Yes"}]}, {"sequence": "RGGDSGGFMLTGGK [AK-05]", "values": [{"measurement": "Cleaved by conditioned media samples?", "setting": "MC38 conditioned media", "value": "No"}, {"measurement": "Cleaved by conditioned media samples?", "setting": "H2228 conditioned media", "value": "No"}, {"measurement": "Cleaved by conditioned media samples?", "setting": "NAT conditioned media", "value": "No"}, {"measurement": "Cleaved by conditioned media samples?", "setting": "tumor conditioned media", "value": "Yes"}]}]}
